For at least one entry, the source does not settle the construct or the ends of the probe. For part of these data: The comparison behind a weaker result is the experiment's own reference, which may not be listed here. At least one verdict was read from the data and is not stated in words by the source. Protein sequences can lack the tags named with them.
What was measured:
[1] = target: T1, GST-ONAC023 (Oryza sativa (rice)) (UniProt Q6H8A9); assay: competition EMSA; conditions: LightShift EMSA kit binding buffer (composition not given), room temperature, competitor 20 min then 1 µL of 10 µM FAM probe 20 min, 6% PAGE, 0.5x TBE, 4 °C, recombinant protein, residues 1-252, protein details: GST (N-terminal, pGEX-4T-1)
T1 sequence (looked up): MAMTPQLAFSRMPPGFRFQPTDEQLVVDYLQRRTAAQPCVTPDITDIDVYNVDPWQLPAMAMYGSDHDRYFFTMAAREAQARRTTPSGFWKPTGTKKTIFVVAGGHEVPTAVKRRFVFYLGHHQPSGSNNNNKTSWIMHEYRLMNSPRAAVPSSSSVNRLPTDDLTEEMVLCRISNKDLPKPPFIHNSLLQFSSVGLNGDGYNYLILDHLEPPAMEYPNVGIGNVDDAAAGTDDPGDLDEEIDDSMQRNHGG

[2] = target: T1, GST-ONAC023 (Oryza sativa (rice)); assay: EMSA; conditions: LightShift EMSA kit binding buffer (composition not given), room temperature, competitor 20 min then 1 µL of 10 µM FAM probe 20 min; 6% PAGE, 0.5x TBE, 4 °C; recombinant protein; residues 1-252; protein details: GST (N-terminal, pGEX-4T-1); label: 5' 6-FAM on strand 1

GAATTCTTCCGGATTCACCGAGGAACGAGAGTTCCGGATTCACCGAGGAACGAGAGGAGCTC (double strand) [ONAC023-BS-mut4 competitor]
binding result ([1]; unlabelled competitor vs FAM probe N1, CACG stated more crucial than other regions): binds more weakly

GAATTCTTCCGGATTCACCGAGGCACGAGAGTTCCGGATTCACCGAGGCACGAGAGGAGCTC (double strand) [ONAC023-BS FAM probe]
binding result [2]: binds

GAATTCTTCCGGATTCACCGAGGCACGAGAGTTCCGGATTCACCGAGGCACGAGAGGAGCTC (double strand) [ONAC023-BS native competitor]
binding result ([1]; unlabelled competitor vs FAM probe N1): binds
